Measured values: PubChem BioAssay AID485318 (Broad Institute, 2010)
The campaign covered roughly 1,400 compounds. Fewer than 10 were called active.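 How the source made its calls: active means fluorescence-lowering compounds whose fitted half-maximal concentration is at or below ten times the highest valid dose tested; inconclusive means flat curve at 30 to 70% inhibition, or poor fit; inactive means the rest.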 The list shows a part of the results.

Chains of the proteins cited; added tags and fusions are not shown. Lines headed by an entry give the natural chain unless they say otherwise; changes in a name come on top.
UniProt O15379: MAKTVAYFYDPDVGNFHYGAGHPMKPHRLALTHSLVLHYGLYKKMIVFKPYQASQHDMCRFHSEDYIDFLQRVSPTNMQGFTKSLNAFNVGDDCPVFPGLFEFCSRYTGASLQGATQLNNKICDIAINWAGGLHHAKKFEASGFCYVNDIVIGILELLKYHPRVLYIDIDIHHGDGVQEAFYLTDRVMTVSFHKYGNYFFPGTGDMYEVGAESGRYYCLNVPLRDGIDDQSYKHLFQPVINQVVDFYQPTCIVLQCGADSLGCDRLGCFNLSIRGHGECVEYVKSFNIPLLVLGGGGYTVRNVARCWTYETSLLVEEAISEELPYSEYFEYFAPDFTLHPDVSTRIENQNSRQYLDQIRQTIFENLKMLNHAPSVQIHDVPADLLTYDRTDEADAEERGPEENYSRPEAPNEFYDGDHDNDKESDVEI

These compounds were tested against Histone deacetylase 3 (Homo sapiens) (UniProt O15379) (assay: HDAC3 deacetylase inhibitors, dose response, counter-screen for JMJD2C/GASC1 demethylase inhibitor project, biochemical, fluorescence, cherry-picked samples (AID 485318;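 further: enzyme preincubated with compound before substrate and trypsin were added; 0% = neutral control wells and -100% = SAHA positive control wells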)). Conditions: recombinant HDAC3, fluorogenic peptide/trypsin coupled; at 12 µM (top of the series).

Row | Compound | activity change, negative = inhibition
1 | COc1cccc(-n2nnc3c(=O)n(Cc4ccccc4F)cnc32)c1 | inactive: -0.245%
2 | CN(C)S(=O)(=O)c1ccc(NC(=S)NC(=O)C2CCC2)cc1 | inactive: -0.3%
3 | CN(C)S(=O)(=O)c1ccc(N2CCCC2)c(C(=O)Nc2nc3ccc(F)cc3s2)c1 | inactive: -1.03%
4 | Cc1ccccc1-c1ccc(=O)n(CC(=O)Nc2ccc(N3CCOCC3)cc2)n1 | inactive: 0.299%
5 | COC(=O)C1=C(C)N(CCc2cc(OC)c(OC)c(OC)c2)C(=O)N[C@H]1c1cccs1 | inactive: 0.535%
6 | O=C1C=C(NCc2ccc3c(c2)OCO3)CC(c2ccccc2)C1 (configuration not stated) | inactive: -0.313%
7 | CCN(C[C@H]1N[C@@](C)(C(=O)OC)[C@H]2C(=O)N(C)C(=O)[C@@H]12)C(=O)Nc1ccc(C)cc1 | inactive: 0.118%
8 | c1ccn2c(SCc3cn4ccsc4n3)nnc2c1 | inactive: 0.916%
9 | C=CCNCCOc1cccc(Br)c1 | inactive: 0.109%
10 | O=C(CNC(=O)c1ccc(S(=O)(=O)N2CCCC2)cc1)N/N=C/c1ccccc1 | inactive: 0.263%
11 | Cc1noc(C)c1C(=O)Nc1ccc2ccccc2c1 | inactive: 0.575%
12 | CC(C)CCSc1cc(NCCO)c([N+](=O)[O-])c2nonc12 | inactive: -0.441%
13 | Cc1ccc(S(=O)(=O)N2CCOCC2)cc1C(=O)NNC(=O)c1ccoc1C | inactive: 0.0595%
14 | Cc1sc2ncnc(OCC(=O)N3CCN(S(=O)(=O)c4ccc(Cl)cc4)CC3)c2c1C | inactive: -0.0129%
15 | COc1cccc(/C=C/C(=O)OCC(=O)NCc2ccc(Cl)cc2)c1 | inactive: 0.682%
16 | COc1ccc(NC(=O)CCN2CCCCCC2)cc1 | inactive: 0.267%
17 | COc1ccc(NC(=O)Nc2ccc3c(c2)C(=O)N([C@H](C)CO)C[C@H](C)[C@@H](CN(C)S(=O)(=O)c2cccs2)O3)cc1 | inactive: -0.466%
18 | Cc1cc(Cl)c(S(=O)(=O)Nc2ccc3c(c2)OCCO3)cc1OCC(N)=O | inactive: -0.0612%
19 | O=C(Oc1cccc(NC(=O)c2ccco2)c1)c1cccc(S(=O)(=O)N2CCCC2)c1 | inactive: 0.0944%

Row | Compound | activity change, negative = inhibition
20 | C[C@H](CO)N1C[C@H](C)[C@@H](CN(C)C(=O)Nc2ccc3c(c2)OCO3)Oc2ccc(NC(=O)Cn3cnnn3)cc2C1=O | inactive: 0.493%
21 | O=C(CSc1ncccn1)NCc1ccc(F)cc1 | inactive: -0.701%
22 | Cc1noc(C)c1COc1ccc(C(=O)NCC2CCCO2)cc1 (configuration not stated) | inactive: 0.748%
23 | Cc1cccc(C(=O)NCC(c2ccco2)N2CCc3ccccc32)c1 (configuration not stated) | inactive: 0.541%
24 | Cc1nnc(SCc2nnc(-c3ccccc3)o2)n(N)c1=O | inactive: 1.1%
25 | Cc1ccccc1N=C1N=C(N)c2ccccc21 | inactive: 1.05%
26 | CN(C)/C=N/c1sccc1C(N)=O | inactive: -0.671%
27 | CCC(C)[C@H](NC(=O)NCc1ccccc1Cl)C(=O)O (some centres not stated) | inactive: 0.225%
28 | O=C(Nc1nnc(-c2cc(Cl)ccc2Cl)o1)c1ccco1 | inactive: 0.485%
29 | Cc1nc2ccc(NC(=O)c3oc4ccc(F)cc4c3C)cc2s1 | inactive: -0.0502%
30 | O=C(c1cc2c(s1)CCC2)N1C(=O)c2ccccc2S1(=O)=O | inactive: 0.903%
31 | COc1ccc(/C=N/Nc2ncnc(Cl)c2N)cc1OC | inactive: -0.195%
32 | O=C(C1CCCCC1)N1CCC(c2nc3c(nnn3Cc3c(F)cccc3Cl)c(=O)[nH]2)CC1 | inactive: -0.334%
33 | C[C@@H]1CN([C@H](C)CO)C(=O)c2cc(NC(=O)Cc3ccccc3)ccc2O[C@H]1CN(C)Cc1ccc(Oc2ccccc2)cc1 | inactive: 0.213%
34 | COc1cc(N)c(C(O)c2nccc3cc(OC)c(OC)cc23)cc1OC (configuration not stated) | inactive: 0.285%
35 | C/C(CC(=O)Nc1cccc(Cl)c1Cl)=N\NC(=O)c1ccccc1N | inactive: -0.0786%
36 | CN1CCN(c2ccc([N+](=O)[O-])cc2C(=O)N2CCOCC2)CC1 | inactive: 0.646%
37 | CCN(CC)c1ccc(C(=O)OCC(=O)N2CCCC2)cc1 | inactive: -0.0401%
38 | Cc1ccc(S(=O)(=O)N2[C@@H](c3ccc(Br)cc3)C(C(=O)O)=CC[C@H]2c2cccc(Cl)c2)cc1 | inactive: 0.311%

Retrieved by compound from above (four):
Row | Compound | activity change, negative = inhibition
30 | O=C(c1cc2c(s1)CCC2)N1C(=O)c2ccccc2S1(=O)=O | inactive: 0.903%
27 | CCC(C)[C@H](NC(=O)NCc1ccccc1Cl)C(=O)O (some centres not stated) | inactive: 0.225%
37 | CCN(CC)c1ccc(C(=O)OCC(=O)N2CCCC2)cc1 | inactive: -0.0401%
33 | C[C@@H]1CN([C@H](C)CO)C(=O)c2cc(NC(=O)Cc3ccccc3)ccc2O[C@H]1CN(C)Cc1ccc(Oc2ccccc2)cc1 | inactive: 0.213%

Continuation:

Row | Compound | activity change, negative = inhibition
39 | CC1=C(C(=O)OCC2CCCO2)C(c2ccccc2OC(C)C)C2=C(CC(c3ccco3)CC2=O)N1 (configuration not stated) | inactive: -0.466%
40 | CC(SCc1ccccc1)C(=O)Nc1ccccc1 (configuration not stated) | inactive: -0.309%
41 | C/C(=N\N1CCN(c2ccccc2)CC1)c1ccncc1 | inactive: 0.205%
42 | COc1ccc(N=c2ssnc2Cl)cc1 | inactive: 0.02%
43 | CC(=O)N1C(c2ccccc2O)C[C@]2(C)CC(=O)NC12 (some centres not stated) | inactive: -0.147%
44 | Cc1ccc(C(O)(C(=O)NNc2ccccn2)c2ccc(C)cc2)cc1 | inactive: 0.576%
45 | COc1ccc(NC(=O)C2OC3OC(C)(C)OC3C3OC(C)(C)OC23)cc1 (configuration not stated) | inactive: 0.403%
46 | COc1ccc2c(c1)CC(C1(O)C(=O)N(C)c3ccccc31)C2=O (configuration not stated) | inactive: 1.58%
47 | COc1ccc(N2CCN(C(=O)CSc3nnc(-c4ccco4)n3C)CC2)cc1 | inactive: 0.298%
48 | O=C(N/N=C/c1ccccc1)c1c(O)c2ccccc2[nH]c1=O | inactive: 1.4%
49 | C[C@H](CO)N1C[C@H](C)[C@@H](CN(C)CC2CCCCC2)Oc2c(NC(=O)C3CC3)cccc2C1=O | inactive: 0.699%
50 | COc1cc(CN2CCN(C(=O)CC(C)C)CC2)cc(OC)c1OC | inactive: 0.151%
51 | CC1CN(Cc2ccccc2)c2nc3c(c(=O)n(C)c(=O)n3C)n2C1 (configuration not stated) | inactive: 0.00628%
52 | COc1cc2cnncc2cc1OC | inactive: 0.288%
53 | CN(C(=O)c1ccc(NC(=O)Cc2ccc(NC(=O)C3CCN(C(=O)C4CCC4)CC3)cc2)cc1)C1CC1 | inactive: 0.986%
54 | NC(=O)COC(=O)Cc1coc2cc3c(cc12)CCC3 | inactive: 0.0778%
55 | COc1ccccc1/C=C1\SC(=S)N(CCC(=O)NNC(=O)c2ccccc2OC)C1=O | inactive: -0.838%
56 | COC(=O)c1c(-c2cccs2)csc1NC(=O)CN1CCOCC1 | inactive: 0.933%
57 | CN(C)CCNC(=O)c1onc(CSc2ccncc2)c1C(=O)NCCN(C)C | inactive: -0.121%
